Measured values reported in the supplement of paper PMC10331698.
± gives the standard deviation of the averaged measurements. Most values lie at the level of the controls, where differences are scatter.

Columns and labels:
Assay in all cases: level (log10 ratio to DMSO vehicle control); higher = higher biomarker level / cell amount than vehicle control
[1] = compound: O=C(O)C(F)(F)C(F)(F)C(F)(F)C(F)(F)C(F)(F)F [Perfluorohexanoic acid] (in DMSO)
Protocol: (§1)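 BioMAP Diversity Plus panel of 12 human primary cell co-culture systems (3C, 4H, LPS, SAg, BT, BF4T, BE3C, CASM3C, HDF3CGF, KF3CT, MyoF, Mphg). Compounds were added 1 h before stimulation and left for 24 h (MyoF 48 h; BT 72 h for soluble read-outs or 6 d for IgG). Biomarkers were read by ELISA, cytotoxicity by SRB, PBMC viability and proliferation by Alamar Blue. Each well value was divided by the mean of 8 DMSO control wells on the same plate and log10 transformed; duplicate blinded samples were tested at 4 concentrations.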

[2] = compound: OCC(F)(F)C(F)(F)C(F)(F)C(F)(F)C(F)(F)C(F)(F)F [6:1 Fluorotelomer alcohol] (in DMSO); settings: 2200 nM
Protocol: as §1

[3] = compound: O=C(O)C(F)(F)C(F)(F)C(F)(F)OC(F)(C(F)(F)F)C(F)(F)F [Perfluoro-4-isopropoxybutanoic acid] (in DMSO); settings: 2200 nM
Protocol: as §1

[4] = compound: OCC(F)(F)OC(F)(F)C(F)(F)OC(F)(F)CO [1H,1H,8H,8H-Perfluoro-3,6-dioxaoctane-1,8-diol] (in DMSO); settings: 2200 nM
Protocol: as §1

[5] = compound: C=C(C)C(=O)OCCC(F)(F)C(F)(F)C(F)(F)C(F)(F)C(F)(F)C(F)(F)F [6:2 Fluorotelomer methacrylate] (in DMSO); settings: 2200 nM
Protocol: as §1

[6] = compound: FC(F)(F)C(F)(F)C(F)(F)C(F)(F)CCI [1H,1H,2H,2H-Perfluorohexyl iodide] (in DMSO); settings: 2200 nM
Protocol: as §1

[7] = compound: O=C(O)C(F)(OC(F)(F)C(F)(F)C(F)(F)F)C(F)(F)F [Ammonium perfluoro-2-methyl-3-oxahexanoate] (in Water)
Protocol: as §1

[8] = compound: OCCCC(F)(F)C(F)(F)C(F)(F)C(F)(F)C(F)(F)C(F)(F)C(F)(F)C(F)(F)F [3-(Perfluorooctyl)propanol] (in DMSO); settings: 2200 nM
Protocol: as §1

[9] = compound: FC(F)(F)COC(OCC(F)(F)F)OCC(F)(F)F [tris(Trifluoroethoxy)methane] (in DMSO); settings: 2200 nM
Protocol: as §1

[10] = compound: CNS(=O)(=O)C(F)(F)C(F)(F)C(F)(F)C(F)(F)C(F)(F)C(F)(F)C(F)(F)C(F)(F)F [N-Methylperfluorooctanesulfonamide] (in DMSO); settings: 2200 nM
Protocol: as §1

[11] = compound: FC(F)(F)C(F)(F)CNCC(F)(F)C(F)(F)F [Bis(1H,1H-perfluoropropyl)amine] (in DMSO); settings: 2200 nM
Protocol: as §1

[12] = compound: OCC(F)(F)C(F)(F)C(F)(F)C(F)F [1H,1H,5H-Perfluoropentanol] (in DMSO); settings: 2200 nM
Protocol: as §1

[13] = compound: O=C(O)C(F)(OC(F)(F)C(F)(OC(F)(F)C(F)(OC(F)(F)C(F)(F)C(F)(F)F)C(F)(F)F)C(F)(F)F)C(F)(F)F [Perfluoro-(2,5,8-trimethyl-3,6,9-trioxadodecanoic)acid] (in DMSO); settings: 370 nM
Protocol: as §1

[14] = compound: O=C(O)C(F)(F)C(F)(F)C(F)(F)C(=O)O [Hexafluoroglutaric acid] (in DMSO)
Protocol: as §1

[15] = compound: O=S(=O)(O)C(F)(F)C(F)(F)C(F)(F)C(F)(F)F [Perfluorobutanesulfonic acid] (in DMSO)
Protocol: as §1

[16] = compound: OCC(F)(F)C(F)(F)C(F)(F)C(F)(F)C(F)(F)C(F)(F)CO [1H,1H,8H,8H-Perfluorooctane-1,8-diol] (in DMSO); settings: 2200 nM
Protocol: as §1

[17] = compound: O=C(O)CCC(F)(F)C(F)(F)C(F)(F)F [3:3 Fluorotelomer carboxylic acid] (in DMSO); settings: 2200 nM
Protocol: as §1

| Test System | level (log10) ([1]; 2200 nM) | level (log10) ([1]; 6700 nM) | level (log10) ([1]; 20000 nM) | level (log10) ([1]; 60000 nM) | level (log10) [2] | level (log10) [3] | level (log10) [4] | level (log10) [5] | level (log10) [6] | level (log10) ([7]; 2200 nM) | level (log10) ([7]; 6700 nM) | level (log10) ([7]; 20000 nM) | level (log10) ([7]; 60000 nM) | level (log10) [8] | level (log10) [9] | level (log10) [10] | level (log10) [11] | level (log10) [12] | level (log10) [13] | level (log10) ([14]; 2200 nM) | level (log10) ([14]; 6700 nM) | level (log10) ([14]; 20000 nM) | level (log10) ([14]; 60000 nM) | level (log10) ([15]; 2200 nM) | level (log10) ([15]; 6700 nM) | level (log10) ([15]; 20000 nM) | level (log10) ([15]; 60000 nM) | level (log10) [16] | level (log10) [17] |
| --- | --- | --- | --- | --- | --- | --- | --- | --- | --- | --- | --- | --- | --- | --- | --- | --- | --- | --- | --- | --- | --- | --- | --- | --- | --- | --- | --- | --- | --- |
| BE3C:CXCL8/IL-8 | 0.0205 ± 0.036 | 0.0095 ± 0.042 | 0.0135 ± 0.00071 | 0.017 ± 0.021 | 0.0205 ± 0.046 | 0.015 ± 0.054 | 0.0055 ± 0.0035 | 0.05 ± 0.12 | 0.012 ± 0.03 | 0.018 ± 0.037 | -0.013 ± 0.071 | 0.0005 ± 0.011 | 0.0195 ± 0.011 | -0.006 ± 0.04 | 0.044 ± 0.088 | -0.0195 ± 0.056 | -0.006 ± 0.099 | 0.0125 ± 0.037 | 0.068 ± 0.076 | 0 ± 0.0028 | -0.011 ± 0.014 | -0.0165 ± 0.0064 | -0.011 ± 0.02 | 0.025 ± 0.055 | 0.0075 ± 0.035 | 0.013 ± 0.028 | 0.0005 ± 0.0092 | 0.029 ± 0.02 | 0.0095 ± 0.013 |
| HDF3CGF:CD54/ICAM-1 | -0.0195 ± 0.016 | -0.009 ± 0.013 | -0.017 ± 0.013 | -0.019 ± 0.037 | -0.0125 ± 0.012 | -0.0125 ± 0.0092 | 0.003 ± 0.0028 | -0.0155 ± 0.0064 | -0.0085 ± 0.00071 | -0.0025 ± 0.00071 | -0.0075 ± 0.015 | -0.0245 ± 0.005 | -0.0555 ± 0.012 | 0.0015 ± 0.018 | -0.008 ± 0.0071 | -0.018 ± 0.0057 | 0.036 ± 0.033 | 0.0085 ± 0.03 | -0.0045 ± 0.018 | 0.009 ± 0.0057 | 0.001 ± 0.018 | 0.0035 ± 0.013 | 0.004 ± 0.016 | 0.0025 ± 0.018 | -0.009 ± 0.016 | -0.0145 ± 0.0021 | 0.003 ± 0.011 | -0.0045 ± 0.036 | 0.0055 ± 0.0078 |
| KF3CT:IL-1alpha | 0.003 ± 0.028 | -0.0045 ± 0.011 | -0.0185 ± 0.011 | 0.008 ± 0.021 | 0.0095 ± 0.0064 | 0.026 ± 0.021 | -0.004 ± 0.062 | -0.004 ± 0.0071 | 0.028 ± 0.011 | -0.0255 ± 0.0064 | -0.001 ± 0.0071 | 0.011 ± 0.0014 | -0.0355 ± 0.044 | -0.0375 ± 0.042 | 0.014 ± 0.033 | 0.046 ± 0.017 | -0.0125 ± 0.011 | 0.0375 ± 0.063 | -0.0105 ± 0.022 | -0.026 ± 0.033 | -0.021 ± 0.014 | 0.012 ± 0.013 | -0.0395 ± 0.012 | 0.0045 ± 0.011 | -0.009 ± 0.0042 | -0.0085 ± 0.0078 | -0.006 ± 0.025 | 0.022 ± 0.021 | 0.0175 ± 0.059 |
